Test results reported in US20140303188A1, “Substituted Cyclopenta Pyrimidine Bicyclic Compounds Having Antitmitotic And/Or Antitumor Activity And Methods Of Use Thereof” (DUQUESNE UNIVERSITY OF THE HOLY SPIRIT, priority 2008, published 2014).

Experiment: NCI COMPARE analysis (TGI correlation)
Conditions: STANDARD_AGENTS_TGI; 2 days

Row | Compound | Correlation (TGI endpoint) with seed S747157 (AAG1)
1 | COc1cc2cc(c1Cl)N(C)C(=O)C[C@H](OC(=O)[C@H](C)N(C)C(C)=O)[C@]1(C)O[C@H]1[C@H](C)[C@@H]1C[C@@](O)(NC(=O)O1)[C@H](OC)/C=C/C=C(\C)C2 [maytansine] | 0.494
2 | CC[C@]1(O)C[C@H]2CN(CCc3c([nH]c4ccccc34)[C@@](C(=O)OC)(c3cc4c(cc3OC)N(C=O)[C@H]3[C@@](O)(C(=O)OC)[C@H](OC(C)=O)[C@]5(CC)C=CCN6CC[C@]43[C@@H]65)C2)C1 [vincristine sulfate] | 0.600

Counter-ions that a name gives are not always drawn.
